Series [1] concerns (3H) DMBA binding to skin DNA. The series is described as follows: [3H]DMBA binding to mouse skin DNA, topical steroid. The conditions noted are these: for average food consumed: ad libitum fed plus steroid, two weeks; for mean weight following two weeks of feeding: ad libitum fed, treated, n=6. Format: in vivo, mouse (A/J). The text has this:
Skin tumors can be induced in the mouse either by weekly application of a carcinogen such as […] (DMBA), or alternatively,by a single sub-threshold dose of the carcinogen followed by twice weekly applications of the tumor promoter tetradecanoylphorbol-13-acetate (TPA). In order to exert its carcinogenic effect, DMBA must be metabolized by an NADPH-dependent mixed-function oxidase to chemically reactive intermediates which bind covalently to DNA and produce mutations leading to malignant transformation. […] This effect of DHEA very probably is a result of the inhibition of G6PDH and lowering of the intracellular pool of NADPH, which is a co-factor for the mixed-function oxidase activation of DMBA.
Binding of [^3 H]DMBA to mouse skin DNA was determined as described in Pashko, L. L., and Schwartz, A. G. (1983), Effect of food restriction, dehydroepiandrosterone, or obesity on the binding of ^3 H-7,12-dimethylbenz(a)-anthracene to mouse skin DNA, J. Gerontol., 38, 8-12. Values are mean±SD for 3 individual determinations, with pooled tissue from 2 mice used for each determination. DHEA or testosterone (400 ug in 0.2 ml acetone) was applied to the skin one hour before [^3 H]DMBA. The mean weight of the food restricted mice was 18.5±1.0 gm, n=6, of the ad libitum fed, 27.4±1.0 gm, n=6, of the ad libitum fed treated with DHEA, 28.2±0.9 gm, n=6, and of the ad libitum fed treated with testosterone, 28.3±0.9 gm, n=6, following two weeks of feeding. The average food consumed was, in gm/mouse/day, 2.2, 3.8, 3.8 and 4.0 for the food restricted, ad libitum fed, ad libitum fed plus DHEA, and ad libitum fed plus testosterone groups, respectively.

Series [2] is described as follows: Anti-obesity test (body weight, food consumption). As to conditions: DHEA treated mice, first week and thereafter. Format: in vivo, mouse (male A/J). The procedure: Male A/J mice (5 weeks old) were obtained from the Jackson Laboratory and were housed in polycarbonate cages (5 mice/cage) in animal quarters maintained at 24°±1° C. with 12 hours of light and 12 hours of darkness each day. One week after arrival, the mice were placed on a chow diet containing varying concentrations of DHEA or other steroid. Animals were weighed weekly; food consumption was determined weekly by subtracting the amount of food remaining in the cage from the amount added.
Male A/J (5 weeks old) were obtained from the Jackson Laboratory and were housed in polycarbonate cages (5 mice/cage) in animal quarters maintained at 24°±1° C. with 12 hours of light and 12 hours of darkness each day. One week after arrival, the mice were placed on a diet containing either DHEA, 19, or without steroid. Animals were weighed weekly. The concentration of DHEA or 19 used in the food was 0.54%.
Male A/J mice (5 weeks old) were obtained from the Jackson Laboratory and were housed in polycarbonate cages (5 mice/cage) in animal quarters maintained at 24°±1° C. with 12 hours of light and 12 hours of darkness each day. One week after arrival, the mice were placed on a show diet containing DHEA, 16, or 21 at 0.36%. Animals were weighed weekly.

“Also recorded” adds a separate entry of the source.

Results on 2 compounds are retold here after US5804576A, “Derivatives of 5-androsten-17-ones and 5-androstan-17-ones” (Research Corporation Technologies, Inc., priority 1986, dated 1998).

Take `C[C@]12CC[C@H](O)CC1=CC[C@@H]1[C@@H]2CC[C@]2(C)C(=O)CC[C@@H]12` [DHEA, 3β-Hydroxy-5-androst-en-17-one, reference compound]: in series [1], the average food consumed is 3.8 gm/mouse/day and the “mean weight following two weeks of feeding” value is reported as 28.2±0.9 gm. Besides, the “food consumption (in words)” value in series [2] is “initial depression in food consumption in the DHEA treated mice in the first week; also recorded: equal to or slightly greater than the control mice”.

In the case of `C[C@]12CC[C@H]3[C@@H](CCC4=CC(=O)CC[C@@]43C)[C@@H]1CC[C@@H]2O` [testosterone], in series [1], the average food consumed was 4.0 gm/mouse/day and the “mean weight following two weeks of feeding” value was found to be 28.3±0.9 gm.
